Test results as given in patent publication US5948764A, “Methods for treatment of multiple sclerosis utilizing peptide analogues of human myelin basic protein” (Neurocrine Biosciences, Inc., priority 1997, dated 1999).
Not every detail of the peptide structures is certain; ends, links or a residue may be inferred. Where a SMILES comes first, the peptide text is derived from it. [ ]: non-standard residue; d: D form.

Experiments:
[1] = system: lymph node cells from h88 immunized rats; assay: Antigen-specific lymph node cell proliferation, h88 immunized rats; format: cell-based, Lewis rats; conditions: FIG. 4
MHC Class II molecules = assay: MHC binding assay on rat splenic adherent cells (competition with biotinylated MBP peptide, cytofluorometric)
[2] = system: lymph node cells from MBP 87-99 immunized rats; assay: Antigen-specific lymph node cell proliferation, MBP 87-99 immunized rats; format: cell-based, Lewis rats
Method: Within the second assay, draining lymph node cells from Lewis rats or SJL mice injected with MBP (87-99) may be used. Preferably, this assay is used in combination with the proliferation assay using T cell lines. Briefly, Lewis rats or SJL mice are injected subcutaneously with MBP (87-99) peptide in complete Freund's adjuvant. Nine to ten days later, draining lymph node cells are isolated and single-cell suspensions are prepared. Lymph node cells are incubated with various concentrations of peptide analogues for three days in a humidified air chamber containing 6.5% CO2. After incubation, the cultures are pulsed with 1-2 μCi of [^3 H]-thymidine for 12-18 hours. Cultures are harvested on fiberglass filters and counted in a scintillation counter. Mean CPM and the standard error of the mean are calculated from data determined in triplicate cultures. […] Peptide analogues which are suitable for further screening will preferably, at concentrations of at least 10 μM, cause stimulation to a level of at least 25% of the native peptide.
Female Lewis rates, approximately six weeks old, are purchased from Harlan Sprague, Indianapolis, Ind. MBP peptides are dissolved in phosphate-buffered saline (PBS) and emulsified with an equal volume of complete Freund's adjuvant (Difco Laboratories, Inc., Detroit, Mich.) supplemented with 2 mg/ml of heat-killed Mycobacterium tuberculosis H37Ra in oil (Difco). Rats are immunized subcutaneously in the base of the tail with 0.1 ml containing 100 μg of the peptide (MBP 87-99 or h88) in the emulsion. Nine to ten days following immunization, rats are sacrificed, their draining lymph node removed, and a single cell suspension made. Cells are resuspended to 5×10^6 cells per ml in stimulation medium containing Dulbecco's modified Eagle's medium (Gibco BRL, Gaithersburg, Md.) supplemented with 2 mercaptoethanol (5×10^-5 M), L-glutamine (2 mM), sodium pyruvate (1 mM), penicillin (100 μg/ml), streptomycin (100 μg/ml), and 1% normal rat serum.
For the assay, 100 μl of the lymph node cell suspension is added to 96-well flat-bottom wells in the presence of an equal volume of medium containing 10 μM of various peptides (including: motilin or Sperm Whale Myoglobin ("SWM") 110-121 as a negative control; MBP 87-99; and h88. Cultures are then incubated at 37° C. in humidified air containing 7.5% CO2. After 3 days of incubation, 1.0 μCi of tritiated thymidine (20 Ci/mM; New England Nuclear) is added to each well and the plates reincubated for an additional 12-16 hours. The plates are then harvested with a Matrix filtermate harvester (Packard) and counted using an Automatic Direct Beta Counter (Packard). Mean cpm and the standard error of the mean are calculated from triplicate wells.

MBP 87-99 induced EAE [3] = assay: Inhibition of MBP 87-99 induced EAE in Lewis rats; format: in vivo; conditions: 1 mg/0.5 ml PBS i.p. on days 9 and 10 (or 10 and 11); three experiments, FIGS. 6A-6C
[4] = system: Murine MBP-specific T cell clones (AG.1H8); assay: Proliferation of murine MBP-specific T cell clone AG.1H8; format: cell-based; conditions: 72 hr, [3H]-thymidine
Method: Murine MBP-specific T cell clones were also used as targets in proliferation assays. T cell clones (30,000 cells) were cultured for 72 hr in the presence of MBP 87-99, A97, or PLP 139-151 (myelin proteolipid protein), and irradiated, syngeneic spleen cells. For 18 hr prior to harvesting, [^3 H]-thymidine was added to each culture. Incorporated thymidine was determined.

MHC = molecular target: T1, MHC (Mus musculus, UniProt P06345+P14437); assay: MHC binding assay on adherent cells of SJL spleen; design: species or system SJL mice
T1 construct: MHC assayed on adherent cells of SJL spleen; from tissue; host or cells: adherent cells of SJL mouse spleen
T1 sequence (P14437 1-233): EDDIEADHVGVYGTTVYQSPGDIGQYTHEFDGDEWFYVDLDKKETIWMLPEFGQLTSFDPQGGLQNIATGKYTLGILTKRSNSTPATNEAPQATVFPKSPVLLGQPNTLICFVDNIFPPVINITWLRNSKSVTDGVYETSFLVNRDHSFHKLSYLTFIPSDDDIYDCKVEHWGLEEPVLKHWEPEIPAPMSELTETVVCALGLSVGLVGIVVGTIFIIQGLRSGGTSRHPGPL
T1 sequence (P06345 28-263): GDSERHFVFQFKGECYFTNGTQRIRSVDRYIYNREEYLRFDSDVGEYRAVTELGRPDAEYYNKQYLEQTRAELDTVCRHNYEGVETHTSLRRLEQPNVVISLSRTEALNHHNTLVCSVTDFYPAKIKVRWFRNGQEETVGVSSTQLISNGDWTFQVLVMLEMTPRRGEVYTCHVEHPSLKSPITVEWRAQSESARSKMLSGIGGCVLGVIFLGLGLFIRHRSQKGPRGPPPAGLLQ

[5] = system: CD3 zeta chain in MBP 87-99 specific T cells; assay: Activation of T cells: phosphorylation of the CD3 zeta chain; format: cell-based, SJL; conditions: 20 μM peptide-pulsed splenocytes; FIG. 13
[6] = system: lymph node cells of SJL mice immunized with MBP 87-99; assay: Lymph node cell proliferation, SJL mice immunized with MBP 87-99; format: cell-based; conditions: for proliferation of lymph node cells (CPM±SEM): 10 μM of peptide, MBP 87-99 immunized mice, background 11,431±3,025 CPM
murine T cell clones = assay: Proliferative responses of three T cell lines (FIG. 9); format: cell-based
[7] = system: IL-2 stimulated T cell line reactive to MBP 87-99; assay: Cytokine production by MBP 87-99 reactive T cell line (ELISA); format: cell-based, SJL; conditions: 48 hr; for IL-2 release / IL-4 release / γ-IFN release: 10 μM PLP 139-151, 3 μM A97 or 3 μM MBP 87-99
Method: Other suitable assays of antigen-specific T cell responses include induction of cytokine production, phosphorylation of the CD3 zeta chain, and induction of apoptosis. Briefly, for assaying cytokine production, an IL-2-stimulated T cell line, which is reactive to MBP […], is incubated with IL-2 and various MBP peptide analogues. Cytokine release is measured at 48 hr. Cytokines are measured by ELISA, or alternatively, RNA expression of cytokines may be measured by Northern blot, RNase probe protection or other standard hybridization methods. Cytokines to be assayed include IL-1 through IL-14, γ-IFN, TNF, and the like. Phosphorylation of the CD3 zeta chain is assayed in MBP 87-89-specific T cells. Briefly, cells are co-incubated with antigen-presenting cells, such as T-depleted splenocytes, which have been pulsed with MBP 87-99 or peptide analogue. Cells are then lysed, and the zeta chain is immunoprecipitated and electrophoresed on an SDS-PAGE gel. The […] may be detected with an antibody. In a third assay, apoptosis may be induced in an antigen-specific manner. For this assay, an MBP stimulated T cell line is incubated with IL-2 and various peptides. Cell loss is measured by flow cytometry or other standard method.
Cytokine production by an IL-2 stimulated T cell line, which is reactive to MBP 87-99, is measured in response to various peptides and peptide analogues. The activated T cell line is co-cultured for 48 hr with a 10-fold excess of irradiated (3000 Rads) SJL T cell-depleted spleen cells, 50 IU/ml human rIL-2 and 10 μM PLP 139-151, 3 μM A97, or 3 μM MBP 87-99. Cytokine release is measured by ELISA.

MBP 87-99 induced EAE [8] = assay: Inhibition of MBP 87-99 induced EAE in SJL mice; format: in vivo
[9] = system: IL-2 stimulated T cell line reactive to MBP 87-99; assay: Induction of apoptosis in an MBP 87-99 reactive T cell line; format: cell-based, SJL; conditions: concentrations as low as 1 μM; 48 hr; FIG. 12
[10] = system: lymph node cells from mice immunized with A97; assay: Lymph node cell proliferation, mice immunized with A97; format: cell-based, SJL mice; conditions: FIG. 8B

SMILES	proliferative response of lymph node cells [1]	proliferative response of lymph node cells ([2]; FIG. 3A)	proliferative response of lymph node cells ([2]; FIG. 3B, separate experiment)	Proliferation ([4]; 10 μM peptide)	Proliferation ([4]; 50 μM peptide)	phosphorylation of TCR (CD3) zeta chain [5]	proliferation of lymph node cells (CPM±SEM) [6]	IL-2 release [7]	IL-4 release [7]	γ-IFN release [7]	other results
CC[C@H](C)[C@H](NC(=O)[C@H](CC(N)=O)NC(=O)[C@H](CCCCN)NC(=O)[C@H](Cc1ccccc1)NC(=O)[C@H](Cc1ccccc1)NC(=O)[C@@H](Cc1c[nH]cn1)NC(=O)[C@@H](NC(=O)[C@@H](N)C(C)C)C(C)C)C(=O)N[C@H](C(=O)N[C@H](C(=O)N1CCC[C@H]1C(=O)N[C@@H](CCCNC(=N)N)C(=O)N[C@H](C(=O)N1CCC[C@H]1C(=O)O)[C@@H](C)O)[C@@H](C)O)C(C)C [h88] (H-VV[dH]FFKNIVTPRTP-OH)	evident	significant	significant	–	–	–	–	–	–	–	inhibition of binding of biotinylated MBP 86-99 to rat spleen cells (MHC Class II molecules; 50 μM inhibitor, 10 μM biotinylated MBP 86-99, FIG. 2): inhibits the binding of biotinylated MBP 86-99 to a greater extent than does MBP 87-99; binding to MHC Class II molecules relative to native peptide (inferred) (MHC Class II molecules; inferred from FIG. 2): greater than that of MBP 86-99; mean clinical score of MBP-induced EAE (MBP 87-99 induced EAE [3]): lessens the mean clinical score of MBP-induced EAE
CC[C@H](C)[C@H](NC(=O)[C@H](CC(N)=O)NC(=O)[C@H](CCCCN)NC(=O)[C@H](Cc1ccccc1)NC(=O)[C@H](Cc1ccccc1)NC(=O)[C@H](Cc1c[nH]cn1)NC(=O)[C@@H](NC(=O)[C@@H](N)C(C)C)C(C)C)C(=O)N[C@H](C(=O)N[C@H](C(=O)N1CCC[C@H]1C(=O)N[C@@H](C)C(=O)N[C@H](C(=O)N1CCC[C@H]1C(=O)O)[C@@H](C)O)[C@@H](C)O)C(C)C [A97] (H-VVHFFKNIVTPATP-OH)	–	–	–	48.9 ± 4.7 CPM × 10^-3	126.8 ± 4.4 CPM × 10^-3	approximately equivalent phosphorylation	132,282±10,775 CPM	12741 pg/mL	11716 pg/mL	54447 pg/mL	inhibition of binding of biotin-labeled MBP 86-99 to MHC (MHC): inhibits binding of biotin-labeled MBP 86-99 to MHC; proliferative response of lymph node cells ([6]; SJL mice immunized with MBP 87-99, FIG. 8A): substantially higher than what is seen with native peptide; proliferative responses of three T cell lines (murine T cell clones): substantially higher than to native peptide; production of IL-2, IL-4 and γ-IFN ([7]; 3 μM): to the same extent as native peptide; IL-10 release ([7]; ELISA): No IL-10 or TNF-α was detected; TNF-α release ([7]; ELISA): No IL-10 or TNF-α was detected; mean clinical score of EAE (MBP 87-99 induced EAE [8]; 0.1 ml of 4 mg/ml i.p. weekly for five weeks, FIG. 10): decreased the mean clinical score of EAE; relapse (MBP 87-99 induced EAE [8]; about 70% of mice treated with native peptide only relapsed, FIG. 10): almost no mice treated with A97 experienced a relapse; incidence of disease (MBP 87-99 induced EAE [8]; i.p. weekly for five weeks, 90% in the control group): 50%; activation-induced apoptosis [9]: caused activation-induced apoptosis to the same extent as native peptide
CC[C@H](C)[C@H](NC(=O)[C@H](CC(N)=O)NC(=O)[C@H](CCCCN)NC(=O)[C@H](Cc1ccccc1)NC(=O)[C@H](Cc1ccccc1)NC(=O)[C@H](Cc1c[nH]cn1)NC(=O)[C@@H](N)C(C)C)C(=O)N[C@H](C(=O)N[C@H](C(=O)N1CCC[C@H]1C(=O)N[C@@H](CCCNC(=N)N)C(=O)N[C@H](C(=O)N1CCC[C@H]1C(=O)O)[C@@H](C)O)[C@@H](C)O)C(C)C [MBP 87-99, reference compound]	evident	significant	significant	3.2 ± 0.6 CPM × 10^-3	45.3 ± 5.2 CPM × 10^-3	approximately equivalent phosphorylation	102,585±9,127 CPM	11708 pg/mL	19760 pg/mL	55841 pg/mL	response of lymph node cells [10]: responded
